This is an account of results in article PMC10629681.

The chains behind the UniProt entries cited, without tags or fusion partners.
UniProt P42582: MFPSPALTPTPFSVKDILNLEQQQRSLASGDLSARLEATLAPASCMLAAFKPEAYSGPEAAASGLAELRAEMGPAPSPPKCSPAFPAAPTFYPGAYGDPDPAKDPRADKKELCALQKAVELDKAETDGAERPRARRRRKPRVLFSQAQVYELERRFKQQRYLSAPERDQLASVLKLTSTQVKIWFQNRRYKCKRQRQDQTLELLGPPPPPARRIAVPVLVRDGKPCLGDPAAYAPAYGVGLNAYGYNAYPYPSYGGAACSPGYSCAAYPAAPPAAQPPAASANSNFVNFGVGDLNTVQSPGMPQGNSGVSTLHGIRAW

The target of test [1] is T1, Tbx20^EH1MUT-GFP (Tbx20 with the EH1 domain substitutions F18L and S19I) (UniProt Q9ES03).
T1 sequence: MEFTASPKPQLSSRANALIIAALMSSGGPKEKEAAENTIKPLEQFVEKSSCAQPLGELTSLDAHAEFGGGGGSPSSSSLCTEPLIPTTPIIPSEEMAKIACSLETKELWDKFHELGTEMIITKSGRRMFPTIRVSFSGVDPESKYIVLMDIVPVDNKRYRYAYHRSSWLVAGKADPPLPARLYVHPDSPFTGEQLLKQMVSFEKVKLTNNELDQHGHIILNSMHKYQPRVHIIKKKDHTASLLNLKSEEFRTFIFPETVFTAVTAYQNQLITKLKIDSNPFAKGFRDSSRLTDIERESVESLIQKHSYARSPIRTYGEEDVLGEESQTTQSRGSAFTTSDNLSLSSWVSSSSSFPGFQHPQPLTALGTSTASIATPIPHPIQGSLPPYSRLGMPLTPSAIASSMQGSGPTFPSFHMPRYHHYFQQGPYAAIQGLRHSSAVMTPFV
Put plainly: co-IP; GFP-Trap magnetic beads on lysate of HEK293 cells co-expressing Tbx20-GFP (wild type or EH1Mut) and Nkx2-5-V5; lysis buffer 20 mM K-HEPES pH 7.4, 150 mM NaCl, 100 mM KOAc, 2 mM MgCl2, 0.5% NP-40, with nuclease; 1 h at 4°C; Western blotting. (In general: Immunoblotting shows a protein as a band on a membrane.)

Test [2] addresses T2, Tbx20-GFP (wild-type T-box transcription factor 20) (UniProt Q9ES03).
T2 sequence: T1 sequence with L18F, I19S
The description is as above.

Where a chain is given by its changes, count along the chain named. No constants are given. Whether binding was seen depends on the method and setting. In cells and extracts the contact can be indirect. Some results given as binding are weak or reduced against the parent protein; the word gives no strength. Tags and fused reporters may be left off the sequences shown.

Turning to Nkx2-5-V5 (from UniProt P42582 1-318), the binding entry in test [1] and in test [2] was “binds” in each case.
